Results deposited as PubChem BioAssay AID1259405 (NCATS, 2018)
The whole screen tested about 50,000 reagents; shown is a part drawn at random. About 4,000 of all reagents (8%) count as active. 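Mouse siRNA library applied to hamster cells; one well for each siRNA.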

Purpose: 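Silenced genes that increase secreted GFP made by CHO cells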 (primary screen)
System: Chinese hamster CHO-K1 ovary cells with stable secreted eGFP expression
Reagents: single siRNA against mouse genes, 0.8 pmol siRNA per well (2 µl of 400 nM stock)
Time to read-out: 3 days
Measurement: 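Percent of the per-plate non-targeting control median for intracellular GFP per well by laser scanning cytometry and for cell viability by ATP luminescence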
Direction: GFP, % of control: higher = more GFP per well, higher productivity; viability (ATP), % of control: higher = more viable cells (more ATP)
Hit rule: 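Called active when intracellular GFP, relative to negative control, is at or above 120%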

gene knocked down | PubChem SID | GFP, % of control | viability (ATP), % of control | activity call
Snx19 | SID363545240 | 131 | 114 | active
Snx19 | SID363548753 | 100 | 78.3 | inactive
Snx19 | SID363562559 | 75.8 | 86 | inactive
Ms4a10 | SID363568831 | 62.4 | 67.1 | inactive
Ms4a10 | SID363576223 | 77.2 | 74.6 | inactive
Ms4a10 | SID363579039 | 26.2 | 30.5 | inactive
Acot7 | SID363545753 | 22.7 | 26.6 | inactive
Acot7 | SID363549266 | 76.3 | 101 | inactive
Acot7 | SID363563072 | 51.8 | 61.2 | inactive
Gnrh1 | SID363541389 | 53.9 | 30.1 | inactive
Gnrh1 | SID363556016 | 43.5 | 28.7 | inactive
Gnrh1 | SID363566305 | 61.9 | 72.5 | inactive
Fkbp6 | SID363568869 | 88.6 | 110 | inactive
Fkbp6 | SID363576261 | 86 | 79.4 | inactive
Fkbp6 | SID363579077 | 55.1 | 61 | inactive
Mgst2 | SID363545180 | 109 | 79.7 | inactive
Mgst2 | SID363548693 | 73.5 | 77.7 | inactive
Mgst2 | SID363562499 | 115 | 74.3 | inactive
Lrp2bp | SID363543488 | 98.2 | 62.1 | inactive
Lrp2bp | SID363552981 | 50.9 | 65.1 | inactive
Lrp2bp | SID363558829 | 70.9 | 76.3 | inactive
Rps27 | SID363553904 | 59.3 | 43.5 | inactive
Rps27 | SID363561861 | 112 | 70.3 | inactive
Rps27 | SID363565599 | 53.2 | 46.8 | inactive
Tmem9 | SID363556228 | 68.9 | 87.1 | inactive
Tmem9 | SID363586678 | 125 | 126 | active
Tmem9 | SID363588786 | 140 | 142 | active
Timm9 | SID363569719 | 135 | 122 | active
Timm9 | SID363576759 | 130 | 133 | active
Timm9 | SID363578167 | 146 | 82.2 | active

Targets above whose gene name begins with A or a (3):
gene knocked down | PubChem SID | GFP, % of control | viability (ATP), % of control | activity call
Acot7 | SID363545753 | 22.7 | 26.6 | inactive
Acot7 | SID363549266 | 76.3 | 101 | inactive
Acot7 | SID363563072 | 51.8 | 61.2 | inactive

More reagents follow.
gene knocked down | PubChem SID | GFP, % of control | viability (ATP), % of control | activity call
Itih2 | SID363572999 | 82.3 | 96.3 | inactive
Itih2 | SID363577575 | 80.9 | 85.4 | inactive
Itih2 | SID363581095 | 73.4 | 62.5 | inactive
Itprip | SID363547169 | 109 | 91.8 | inactive
Itprip | SID363549981 | 56.8 | 79 | inactive
Itprip | SID363588035 | 138 | 158 | active
Tcerg1l | SID363556341 | 100 | 118 | inactive
Tcerg1l | SID363586791 | 76.7 | 109 | inactive
Tcerg1l | SID363588899 | 80 | 92 | inactive
Mpnd | SID363547421 | 79.8 | 66.8 | inactive
Mpnd | SID363558190 | 59.8 | 42.6 | inactive
Mpnd | SID363559948 | 84.8 | 95.5 | inactive
Rab38 | SID363570049 | 102 | 112 | inactive
Rab38 | SID363576385 | 112 | 84.3 | inactive
Rab38 | SID363579553 | 72.5 | 72.5 | inactive
Fbp2 | SID363575081 | 113 | 75.1 | inactive
Fbp2 | SID363580713 | 101 | 94.6 | inactive
Fbp2 | SID363582825 | 104 | 84.7 | inactive
Agrp | SID363541427 | 67.4 | 67.5 | inactive
Agrp | SID363556054 | 52.2 | 41 | inactive
Agrp | SID363566343 | 30.4 | 28.2 | inactive
Vmn1r148 | SID363544903 | 132 | 85.3 | active
Vmn1r148 | SID363551231 | 70.9 | 57.3 | inactive
Vmn1r148 | SID363557780 | 101 | 97.5 | inactive
Cfap300 | SID363542811 | 121 | 98.1 | active
Cfap300 | SID363546328 | 91.7 | 90 | inactive
Cfap300 | SID363548084 | 80.8 | 102 | inactive
Zbed3 | SID363556840 | 68.8 | 99.8 | inactive
Zbed3 | SID363563744 | 59.9 | 76.9 | inactive
Zbed3 | SID363587290 | 123 | 103 | active
Sema3a | SID363541740 | 71.7 | 77.7 | inactive
Sema3a | SID363553332 | 28.4 | 36.7 | inactive
Sema3a | SID363566656 | 33.6 | 47.5 | inactive
Nudt9 | SID363581966 | 51.1 | 86.1 | inactive
Nudt9 | SID363589460 | 86 | 76.9 | inactive
Stmn4 | SID363556337 | 83.5 | 79.3 | inactive
Stmn4 | SID363586787 | 117 | 121 | inactive
Stmn4 | SID363588895 | 141 | 90.9 | active
Snai1 | SID363568978 | 33.8 | 90.3 | inactive
Snai1 | SID363583410 | 66.5 | 85.7 | inactive
Sult4a1 | SID363570535 | 38.6 | 43.8 | inactive
Sult4a1 | SID363579335 | 67.4 | 121 | inactive
Sult4a1 | SID363583207 | 86.8 | 105 | inactive
Tafa3 | SID363552322 | 63.4 | 61.5 | inactive
Tafa3 | SID363585458 | 82.2 | 78.9 | inactive
Tafa3 | SID363585809 | 72.3 | 93.6 | inactive
Rgs9 | SID363545194 | 54.9 | 50 | inactive
Rgs9 | SID363548707 | 64.1 | 69.2 | inactive
Rgs9 | SID363562513 | 68.8 | 47.5 | inactive
Tmigd3 | SID363544295 | 147 | 42.8 | active
Tmigd3 | SID363550623 | 65.9 | 33.6 | inactive
Tmigd3 | SID363557172 | 128 | 134 | active
Nat8f2 | SID363545376 | 45.9 | 60.1 | inactive
Nat8f2 | SID363548889 | 62.2 | 80.8 | inactive
Nat8f2 | SID363562695 | 81.1 | 57.9 | inactive
